# Test results taken from US12643889B2, “Synthesis of novel EP4 antagonist and use in cancer and inflammation” (Wuhan Humanwell Innovative Drug Research And Development …, priority 2020, dated 2026).
# Some of these results come from one statement about several compounds together.
# Tested on: CT-26 murine colon cancer tumor model
# Experiment: Anti-tumor effect in CT-26 murine colon cancer tumor model in combination with radiation therapy
# Assay type: in vivo, mouse
# Details: 150 mg/kg in combination with radiotherapy; day 23
# Procedure: In this assay, the anti-tumor effects of the control compound and the compounds prepared in Examples 1 to 43, in combination with radiation therapy, were tested in a CT-26 murine colon cancer tumor model.
# After one week of adaptive feeding of mice, CT-26 cells in a log phase were resuspended in PBS, 5×10^5 CT-26 cells were inoculated subcutaneously at the right flank at 100 μL per mouse, and tumor growth was observed regularly. When the tumor grew to an average volume of 60 to 80 mm^3, the mice carrying the tumor were randomly divided into 5 groups based on the tumor volume size, each group containing 10 mice of 10. These group were a group of Control compound (150 mg/kg) in combination with radiotherapy (3Gry), a group of Compound I-2 (150 mg/kg) in combination with radiotherapy, a group of Compound I-5 (150 mg/kg) in combination with radiotherapy, a group of radiotherapy (3Gry) alone, and a group of vehicle control. The mice were intragastrically administered with the corresponding compound once daily, for 23 days in total; radiation therapy was performed for one-time on the first day of the administration. Tumor volumes and mouse body weights were measured twice a week, and tumor weights were weighed at the end of the experiment. […] Tumor volume and relative tumor inhibition were calculated as follows: […]
smiles,measurement,value
"C[C@H](NC(=O)c1c(C(F)F)nn(C)c1Oc1cccc(C(F)(F)F)c1)c1ccc(C(=O)O)cc1 [Control Compound, reference compound]",p versus vehicle control group,smaller than 0.05
